According to article PMC13437097:
No constants are given. Whether binding was seen depends on the method and setting. Binding seen in cells or lysates may run through a third protein. Some results given as binding are weak or reduced against the parent protein; the word gives no strength.

Sequences of proteins named here, by UniProt entry; tags and fusion partners are left off.
UniProt Q9Z1E3: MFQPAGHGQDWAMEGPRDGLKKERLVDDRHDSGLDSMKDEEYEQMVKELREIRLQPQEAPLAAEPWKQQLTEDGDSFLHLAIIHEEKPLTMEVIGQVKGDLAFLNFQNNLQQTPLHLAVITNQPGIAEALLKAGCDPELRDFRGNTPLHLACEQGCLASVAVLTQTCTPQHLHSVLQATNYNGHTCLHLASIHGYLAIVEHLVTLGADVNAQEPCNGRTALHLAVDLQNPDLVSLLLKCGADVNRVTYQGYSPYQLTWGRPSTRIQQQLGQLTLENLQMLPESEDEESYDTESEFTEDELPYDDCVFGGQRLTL

Tests used:
[1] = target: IκBα (mouse (endogenous in mouse VSMCs)) (UniProt Q9Z1E3); assay: co-IP; endogenous proteins; PDGFBB/SCAPi-treated VSMCs lysed in Nonidet P40 buffer, IP antibody on protein A/G magnetic beads or agarose overnight at 4°C, western blot
[2] = target: T1, SREBP cleavage-activating protein (SCAP) (mouse (endogenous in mouse VSMCs)) (UniProt Q6GQT6); assay: as above
T1 sequence: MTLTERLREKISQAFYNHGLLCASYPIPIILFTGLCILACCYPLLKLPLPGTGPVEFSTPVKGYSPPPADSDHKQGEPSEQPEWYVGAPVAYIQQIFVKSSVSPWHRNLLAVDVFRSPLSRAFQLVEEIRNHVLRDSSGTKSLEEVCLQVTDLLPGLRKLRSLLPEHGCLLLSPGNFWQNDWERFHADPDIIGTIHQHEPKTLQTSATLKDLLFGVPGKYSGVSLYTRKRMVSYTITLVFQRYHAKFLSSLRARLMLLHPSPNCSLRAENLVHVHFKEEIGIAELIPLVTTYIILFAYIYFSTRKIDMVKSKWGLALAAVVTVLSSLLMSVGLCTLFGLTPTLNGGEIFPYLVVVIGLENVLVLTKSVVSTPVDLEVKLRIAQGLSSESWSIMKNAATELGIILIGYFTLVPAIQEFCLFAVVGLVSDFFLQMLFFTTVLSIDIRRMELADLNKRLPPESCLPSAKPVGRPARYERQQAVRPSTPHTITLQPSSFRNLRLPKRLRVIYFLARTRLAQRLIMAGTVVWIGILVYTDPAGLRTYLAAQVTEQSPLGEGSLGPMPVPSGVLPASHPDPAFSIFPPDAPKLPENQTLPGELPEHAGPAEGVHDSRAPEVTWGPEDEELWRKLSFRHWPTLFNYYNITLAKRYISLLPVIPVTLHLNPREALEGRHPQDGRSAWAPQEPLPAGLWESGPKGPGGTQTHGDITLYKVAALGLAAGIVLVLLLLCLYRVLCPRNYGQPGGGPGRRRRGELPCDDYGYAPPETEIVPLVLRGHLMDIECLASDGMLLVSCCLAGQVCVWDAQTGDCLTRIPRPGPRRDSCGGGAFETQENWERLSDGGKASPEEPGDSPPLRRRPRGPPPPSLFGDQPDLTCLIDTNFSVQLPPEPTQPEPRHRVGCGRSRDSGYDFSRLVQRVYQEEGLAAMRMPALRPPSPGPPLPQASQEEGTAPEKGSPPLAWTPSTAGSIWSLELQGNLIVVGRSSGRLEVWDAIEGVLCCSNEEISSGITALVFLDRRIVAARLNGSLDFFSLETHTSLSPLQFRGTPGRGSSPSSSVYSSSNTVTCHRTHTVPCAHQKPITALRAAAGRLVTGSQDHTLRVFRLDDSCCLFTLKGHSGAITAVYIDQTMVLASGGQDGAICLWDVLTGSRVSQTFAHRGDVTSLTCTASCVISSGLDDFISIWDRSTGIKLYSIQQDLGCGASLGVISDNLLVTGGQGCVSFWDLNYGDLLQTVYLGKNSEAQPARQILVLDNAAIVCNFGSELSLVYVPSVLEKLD

[3] = target: IκBα (mouse (endogenous in mouse VSMCs)) (UniProt Q9Z1E3); assay: proximity ligation; Duolink PLA on fixed, permeabilised VSMCs (with or without PDGFBB), primary antibodies 4°C 8-12 h
[4] = target: T1, SREBP cleavage-activating protein (SCAP) (mouse (endogenous in mouse VSMCs)); assay: as above

- binding [1]: binds
- binding [2]: binds
- binding [3]: binds
- binding [4]: binds
B1: Tripartite motif containing 27 (Trim27) (protein, UniProt Q62158 1-513)
chain: MASGSVAECLQQETTCPVCLQYFVEPMMLDCGHNICCACLARCWGAAETNVSCPQCRETFPQRHMRPNRHLANVTQLVKQLRTERPSGPGGEMGVCEKHREPLKLYCEQDQMPICVVCDRSREHRGHSVLPLEEAVEGFKEQIQNRLDHLRRVKDLKKRRRAQGEQARAELLSLTQMEREKIVWEFEQLYHSLKEHEYRLLARLEELDLAIYNSINGAITQFSCNISHLSGLIAQLEEKQQQPTRELLQDIGDTLSRAERIRIPEPWITPPDLQEKIHIFAQKCLFLTESLKQFTEKMQSDMEKIQELREAQLYSVDVTLDPDTAYPSLILSDNLRQVRYSYLQQDLPDNPERFNLFPCVLGSPCFIAGRHYWEVEVGDKAKWTIGVCEDSVCRKGGVTSAPQNGFWAVSLWYGKEYWALTSPMTALPLRTPLQRVGIFLDYDAGEVSFYNVTERCHTFTFSHATFCGPVRPYFSLSYSGGKSAAPLIICPMSGIDGFSGHVGNHGHSMETSP
